PubChem BioAssay AID1159578, Peter MacCallum Cancer Centre | 2015
The whole screen tested about 18,000 reagents; this is a random part of them. In the full data, about 1,030 (5.7%) are marked active. 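Inactive calls also include pools with fewer than 3300 nuclei, whose migration was not assessed.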 Raw values are not corrected between plates.

Aim: 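Knock-downs that alter how fast lymphatic endothelial cells migrate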 (primary screen)
System: human lymphatic endothelial cells
Knock-down reagent: siRNA pool against human genes, 40 nM
Time to read-out: 48 h after transfection
Detection: 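Cells stained with dye and imaged after a scratch; covered wound area and nuclei counted, duplicates averaged, migration set against mock wells and turned into a robust z-score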
Direction: migration robust z-score: higher = faster migration into the scratch; migration relative to mock: higher = more scratch area covered than mock; nuclei per well: higher = more cells in the well
Rule for the call: 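Migration changed when robust z exceeds 2 or falls below -2 and mean nuclei number is at least 3300; otherwise not called changed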
Meaning of the calls: active = migration changed; inactive = no migration change, or too few cells

gene knocked down | migration robust z-score | migration class with cell-count check | migration relative to mock | nuclei per well, duplicate mean | activity call
GUCA2A | 0.1 | migration z between -2 and 2; enough cells | 0.91 | 6884 | inactive
CDY2A | -1.04 | migration z between -2 and 2; enough cells | 0.6 | 4365 | inactive
MAST2 | -1.15 | migration z between -2 and 2; enough cells | 0.58 | 3748 | inactive
CA12 | 0.44 | migration z between -2 and 2; enough cells | 0.89 | 5381 | inactive
FBXO32 | 1.4 | migration z between -2 and 2; enough cells | 1.08 | 5724 | inactive
BEX5 | 0 | migration z between -2 and 2; enough cells | 0.88 | 5434 | inactive
ZNF577 | -1.01 | migration z between -2 and 2; enough cells | 0.62 | 5426 | inactive
TRDMT1 | -0.57 | migration z between -2 and 2; enough cells | 0.7 | 5998 | inactive
IFNB1 | -0.41 | migration z between -2 and 2; enough cells | 0.78 | 5590 | inactive
PITX2 | 0.24 | migration z between -2 and 2; enough cells | 0.85 | 5336 | inactive
MRPL30 | -0.03 | migration z between -2 and 2; enough cells | 0.88 | 5098 | inactive
PSMA7 | 0.83 | migration z between -2 and 2; enough cells | 0.96 | 5795 | inactive
MRPL33 | 0.86 | migration z between -2 and 2; enough cells | 1.11 | 6345 | inactive
LYN | -1.66 | migration z between -2 and 2; enough cells | 0.48 | 3790 | inactive
TGOLN2 | 0.44 | migration z between -2 and 2; enough cells | 1 | 5891 | inactive
ARCN1 | -2.29 | migration z below -2; enough cells | 0.3 | 5890 | active
ARSH | 0.11 | migration z between -2 and 2; enough cells | 0.82 | 5763 | inactive
STAB1 | -0.5 | migration z between -2 and 2; enough cells | 0.76 | 6596 | inactive
APRT | 0.46 | migration z between -2 and 2; enough cells | 0.9 | 5687 | inactive
PLA2G4E | -1.58 | migration z between -2 and 2; enough cells | 0.5 | 5149 | inactive
KIR2DL5B | -0.57 | migration z between -2 and 2; enough cells | 0.74 | 5748 | inactive
INPP5J | -0.75 | migration z between -2 and 2; enough cells | 0.66 | 5592 | inactive
ERVW-1 | 0.49 | migration z between -2 and 2; enough cells | 1.02 | 5615 | inactive
RHAG | -2.1 | under 3300 nuclei; migration not judged | 0.4 | 3192 | inactive
ABCC11 | -1.76 | migration z between -2 and 2; enough cells | 0.46 | 3824 | inactive
SNX14 | 0.05 | migration z between -2 and 2; enough cells | 0.9 | 5852 | inactive
PPP1R14B | 0.52 | migration z between -2 and 2; enough cells | 0.9 | 5977 | inactive
PCDHGB4 | 0.54 | migration z between -2 and 2; enough cells | 1.02 | 7002 | inactive
VIPR1 | -0.16 | migration z between -2 and 2; enough cells | 0.78 | 5771 | inactive
SPTBN1 | -1.02 | migration z between -2 and 2; enough cells | 0.61 | 6104 | inactive
NOL8 | 0.98 | migration z between -2 and 2; enough cells | 1.14 | 4992 | inactive
NR6A1 | -0.88 | migration z between -2 and 2; enough cells | 0.64 | 3678 | inactive
S100A6 | -1.46 | migration z between -2 and 2; enough cells | 0.52 | 3756 | inactive
UBQLN4 | -0.27 | migration z between -2 and 2; enough cells | 0.81 | 4169 | inactive

The list goes on, starting with the last 6 of the part before.
gene knocked down | migration robust z-score | migration class with cell-count check | migration relative to mock | nuclei per well, duplicate mean | activity call
VIPR1 | -0.16 | migration z between -2 and 2; enough cells | 0.78 | 5771 | inactive
SPTBN1 | -1.02 | migration z between -2 and 2; enough cells | 0.61 | 6104 | inactive
NOL8 | 0.98 | migration z between -2 and 2; enough cells | 1.14 | 4992 | inactive
NR6A1 | -0.88 | migration z between -2 and 2; enough cells | 0.64 | 3678 | inactive
S100A6 | -1.46 | migration z between -2 and 2; enough cells | 0.52 | 3756 | inactive
UBQLN4 | -0.27 | migration z between -2 and 2; enough cells | 0.81 | 4169 | inactive
S100P | 0.17 | migration z between -2 and 2; enough cells | 0.92 | 3367 | inactive
R3HDM2 | 0.4 | migration z between -2 and 2; enough cells | 0.99 | 4726 | inactive
TCERG1 | 0.42 | under 3300 nuclei; migration not judged | 0.88 | 3196 | inactive
CCL3 | 0.69 | migration z between -2 and 2; enough cells | 1.06 | 7186 | inactive
SEL1L3 | -0.11 | migration z between -2 and 2; enough cells | 0.86 | 6342 | inactive
PAN2 | -0.42 | migration z between -2 and 2; enough cells | 0.73 | 4342 | inactive
CTDSPL | 0.58 | migration z between -2 and 2; enough cells | 1.04 | 6272 | inactive
MBD5 | -1.58 | migration z between -2 and 2; enough cells | 0.48 | 4074 | inactive
PLEKHG5 | -0.83 | migration z between -2 and 2; enough cells | 0.67 | 6467 | inactive
DMXL2 | -0.94 | migration z between -2 and 2; enough cells | 0.64 | 6778 | inactive
CPS1 | 1.92 | migration z between -2 and 2; enough cells | 1.18 | 5934 | inactive
ENAM | -1.83 | migration z between -2 and 2; enough cells | 0.41 | 5840 | inactive
ZFP42 | -0.1 | migration z between -2 and 2; enough cells | 0.86 | 4865 | inactive
ADGRA1 | -0.1 | migration z between -2 and 2; enough cells | 0.78 | 6333 | inactive
CALY | -0.31 | migration z between -2 and 2; enough cells | 0.8 | 5832 | inactive
IHH | -0.15 | migration z between -2 and 2; enough cells | 0.77 | 5834 | inactive
KIZ | -0.5 | migration z between -2 and 2; enough cells | 0.76 | 6210 | inactive
TMEM171 | 0.24 | migration z between -2 and 2; enough cells | 0.95 | 5865 | inactive
ZNF239 | 2.09 | migration z above 2; enough cells | 1.43 | 7039 | active
UGT2B15 | 0.64 | migration z between -2 and 2; enough cells | 0.93 | 5406 | inactive
GCGR | -2.21 | migration z below -2; enough cells | 0.38 | 5710 | active
FAM153CP | -1 | migration z between -2 and 2; enough cells | 0.62 | 5977 | inactive
ZNF333 | 1.18 | migration z between -2 and 2; enough cells | 1.19 | 6614 | inactive
